From the supplement of paper PMC12823440, “Inhibitors supercharge kinase turnover through native proteolytic circuits” (Nature, 2025)
Counter-ions that a name gives are not always drawn. The list shows a part of the results. The calls rarely recur for the same compound in another form.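 Kinases, fused to nanoluciferase, were expressed in K562 cells; luminescence was measured every 4 h from 2 to 18 h as percent of control (DMSO = 100%, positive control = 0%). A time point is decreased if signal falls significantly (2 sigma). Hits were called by the authors by a rule that is not shown; the count of time points alone does not decide it.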

By UniProt entry, the sequences of proteins in these tests, tags left out. Where a name states a change or a piece, a line headed by the entry shows the natural chain unless it says otherwise.
UniProt Q06187: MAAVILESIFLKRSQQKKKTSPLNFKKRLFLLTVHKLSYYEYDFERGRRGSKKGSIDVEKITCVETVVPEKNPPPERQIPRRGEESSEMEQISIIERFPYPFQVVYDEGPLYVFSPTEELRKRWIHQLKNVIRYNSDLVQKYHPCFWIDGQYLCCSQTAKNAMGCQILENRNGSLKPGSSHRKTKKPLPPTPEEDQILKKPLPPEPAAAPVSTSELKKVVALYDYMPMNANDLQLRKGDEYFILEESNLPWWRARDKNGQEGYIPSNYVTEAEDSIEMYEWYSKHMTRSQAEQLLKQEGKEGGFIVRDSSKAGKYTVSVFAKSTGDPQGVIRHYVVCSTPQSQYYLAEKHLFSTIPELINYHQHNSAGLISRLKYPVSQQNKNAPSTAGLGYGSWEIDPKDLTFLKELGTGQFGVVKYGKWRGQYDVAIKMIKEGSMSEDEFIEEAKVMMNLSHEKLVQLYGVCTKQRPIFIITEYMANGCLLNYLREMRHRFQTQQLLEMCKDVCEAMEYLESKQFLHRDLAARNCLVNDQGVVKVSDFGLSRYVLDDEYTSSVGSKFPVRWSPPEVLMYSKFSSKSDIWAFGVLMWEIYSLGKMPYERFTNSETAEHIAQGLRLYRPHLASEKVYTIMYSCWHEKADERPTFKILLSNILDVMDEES

What follows are compounds tested against BTK (UniProt Q06187) (assay: kinase-Nluc reporter destabilization hit call (1 = scored as downregulated) (binary); higher = compound decreases kinase abundance). Details: 2 µM; K562; 2-18 h.

kinase-Nluc reporter destabilization hit call, inactive:
CCc1nc(C(N)=O)c(Nc2ccc(N3CCC(N4CCN(C)CC4)CC3)c(OC)c2)nc1NC1CCOCC1 [Gilteritinib] 0
CCc1nc(C(N)=O)c(Nc2ccc(N3CCC(N4CCN(C)CC4)CC3)c(OC)c2)nc1NC1CCOCC1 [Gilteritinib hemifumarate] 0
Cc1[nH]c(/C=C2\C(=O)Nc3ccc(F)cc32)c(C)c1C(=O)NCCN1CCCC1 [Toceranib (phosphate)] 0
Cc1[nH]c(/C=C2\C(=O)Nc3ccc(F)cc32)c(C)c1C(=O)NCCN1CCCC1 [Toceranib] 0

Same assay, conditions: 2.5 µM; K562; 2-18 h

kinase-Nluc reporter destabilization hit call, inactive:
C=CC(=O)Nc1cc(Nc2nccc(-c3cn(C)c4ccccc34)n2)c(OC)cc1N(C)CCN(C)C [Osimertinib mesylate] 0
c1cc(-c2cnn3cc(-c4ccc(OCCN5CCCCC5)cc4)cnc23)ccn1 [Dorsomorphin] 0
CN(C)C/C=C/C(=O)Nc1cc2c(Nc3ccc(F)c(Cl)c3)ncnc2cc1O[C@H]1CCOC1 [Afatinib (dimaleate)] 0
C=CC(=O)Nc1cc(Nc2nccc(-c3cn(C)c4ccccc34)n2)c(OC)cc1N(C)CCN(C)C [Osimertinib] 0
CN(C)C(=O)c1cc2cnc(Nc3ccc(N4CCNCC4)cn3)nc2n1C1CCCC1 [Ribociclib hydrochloride] 0
COc1ccc(S(=O)(=O)Nc2ccccc2CN(C)C/C=C/c2ccc(Cl)cc2)cc1 [KN-92 (hydrochloride)] 0
COc1ccc(S(=O)(=O)Nc2ccccc2CN(C)C/C=C/c2ccc(Cl)cc2)cc1 [KN-92 (phosphate)] 0

Same assay, conditions: 10 µM; K562; 2-18 h

kinase-Nluc reporter destabilization hit call, inactive:
CCS(=O)(=O)N1CCN(c2ccc(Nc3ncc(C(N)=O)c(NC4CC4)n3)cc2)CC1 [Cerdulatinib (hydrochloride)] 0
C[C@@H](N)c1ccc(C(=O)Nc2ccnc3[nH]ccc23)cc1 0
COc1ncc(F)cc1CNc1ccc(Cc2c[nH]c3ncc(C)cc23)c(F)n1 0
CCS(=O)(=O)N1CC(CC#N)(n2cc(-c3ncnc4[nH]ccc34)cn2)C1 [Baricitinib (phosphate)] 0
COC(=O)[C@H](CC(C)C)NC(=O)c1ccc(NC[C@@H](N)CS)cc1-c1cccc2ccccc12 [GGTI298 (Trifluoroacetate)] 0
COCCOc1cc(F)c2c(Nc3ccc(NC(=O)Cn4cc(C(C)C)nn4)cc3)ncnc2c1 [AZD3229 Tosylate] 0
CC(C)(C)n1nc(-c2cccc3ccccc23)c2c(N)ncnc21 [1-Naphthyl PP1] 0
N#CCNC(=O)c1ccc(-c2ccnc(Nc3ccc(N4CCOCC4)cc3)n2)cc1 [Momelotinib sulfate] 0
Cn1ncc(Cl)c1-c1cc(C(=O)N[C@H](CN)Cc2cccc(F)c2)sc1Cl [Afuresertib] 0
CNC(=O)c1ccc(Nc2ncc(C(F)(F)F)c(NCc3nccnc3N(C)S(C)(=O)=O)n2)cc1 [Defactinib] 0
O=C(O)c1ccc2c(c1)nc(Nc1cccc(Cl)c1)c1ccncc12 [Silmitasertib] 0
O=C(Nc1cnn2ccc(N3CCC[C@@H]3c3cc(F)ccc3F)nc12)N1CC[C@H](O)C1 [Larotrectinib] 0
COc1cc2nccc(Oc3ccc(NC(=O)C4(C(=O)Nc5ccc(F)cc5)CC4)cc3)c2cc1OC [Cabozantinib (S-malate)] 0
CN(C)C(=N)NC(=N)N [Metformin (hydrochloride)] 0
COc1ccnc(C[S+]([O-])c2nc3cc(-n4cccc4)ccc3[nH]2)c1C (configuration not stated) [Ilaprazole (sodium)] 0
C#Cc1cccc(Nc2ncnc3cc4c(cc23)OCCOCCOCCO4)c1 [Icotinib (Hydrochloride)] 0
CC(C)NC[C@@H](C(=O)N1CCN(c2ncnc3c2[C@H](C)C[C@H]3O)CC1)c1ccc(Cl)cc1 [Ipatasertib] 0
CC(=O)c1c(C)c2cnc(Nc3ccc(N4CCNCC4)cn3)nc2n(C2CCCC2)c1=O [Palbociclib (monohydrochloride)] 0
C#Cc1cccc(Nc2ncnc3cc(OCCOC)c(OCCOC)cc23)c1 [Erlotinib] 0
OCCn1cc(-c2cnc3nnn(Cc4ccc5ncccc5c4)c3n2)cn1 0
CCN(CC)CC(=O)Nc1c(C)cccc1C [Lidocaine] 0
CCS(=O)(=O)N1CCN(c2ccc(Nc3ncc(C(N)=O)c(NC4CC4)n3)cc2)CC1 [Cerdulatinib] 0
C#Cc1cccc(Nc2ncnc3cc(OCCOC)c(OCCOC)cc23)c1 [Erlotinib (Hydrochloride)] 0
O=C(c1ccc(F)c(F)c1Nc1ccc(I)cc1F)N1CC(O)([C@@H]2CCCCN2)C1 [Cobimetinib] 0
CC(C)(C)n1nc(-c2cccc3ccccc23)c2c(N)ncnc21 [1-Naphthyl PP1 (hydrochloride)] 0
CC(=O)c1c(C)c2cnc(Nc3ccc(N4CCNCC4)cn3)nc2n(C2CCCC2)c1=O [Palbociclib (isethionate)] 0

A portion of the results above, as a working copy:
kinase-Nluc reporter destabilization hit call, inactive:
C#Cc1cccc(Nc2ncnc3cc4c(cc23)OCCOCCOCCO4)c1 [Icotinib (Hydrochloride)] 0
CC(C)NC[C@@H](C(=O)N1CCN(c2ncnc3c2[C@H](C)C[C@H]3O)CC1)c1ccc(Cl)cc1 [Ipatasertib] 0
CC(=O)c1c(C)c2cnc(Nc3ccc(N4CCNCC4)cn3)nc2n(C2CCCC2)c1=O [Palbociclib (monohydrochloride)] 0
C#Cc1cccc(Nc2ncnc3cc(OCCOC)c(OCCOC)cc23)c1 [Erlotinib] 0
OCCn1cc(-c2cnc3nnn(Cc4ccc5ncccc5c4)c3n2)cn1 0
CCN(CC)CC(=O)Nc1c(C)cccc1C [Lidocaine] 0
CCS(=O)(=O)N1CCN(c2ccc(Nc3ncc(C(N)=O)c(NC4CC4)n3)cc2)CC1 [Cerdulatinib] 0
C#Cc1cccc(Nc2ncnc3cc(OCCOC)c(OCCOC)cc23)c1 [Erlotinib (Hydrochloride)] 0
O=C(c1ccc(F)c(F)c1Nc1ccc(I)cc1F)N1CC(O)([C@@H]2CCCCN2)C1 [Cobimetinib] 0
